The exact form of at least one protein or probe is not confirmed. Results from cells or extracts need not show a direct contact. For some of these results: At least one verdict was read from the data and is not stated in words by the source.
Experiments:
[1] = biological target: HA-p65 (RelA) wild type (Homo sapiens) (UniProt Q04206); experiment: EMSA, supershift (p65 antibody); conditions: etoposide-treated; HEK-293 nuclear extracts, 32P probes; pH and temperature not given (as previously described, ref. 48); protein in an extract; residues 1-551; protein details: HA; label: 32P
[2] = biological target: HA-p65 S547A (Homo sapiens) (UniProt Q04206); experiment: EMSA, supershift (p65 antibody); conditions: etoposide-treated; HEK-293 nuclear extracts, 32P probes; pH and temperature not given (as previously described, ref. 48); protein in an extract; residues 1-551; protein details: HA; label: 32P
[3] = tested on: p65 (RelA), endogenous + p50 (NF-kB1), endogenous; experiment: EMSA, supershift (p65 and p50 antibodies); conditions: etoposide-treated; HEK-293 nuclear extracts, 32P probes; pH and temperature not given (as previously described, ref. 48); protein in an extract; label: 32P
[4] = biological target: p50/p50 homodimer, endogenous (Homo sapiens) (UniProt P19838); experiment: EMSA, supershift; conditions: p65 siRNA, residual binding; HEK-293 nuclear extracts, 32P probes; pH and temperature not given (as previously described, ref. 48); protein in an extract; label: 32P

Sequences of proteins named here, by UniProt entry; tags and fusion partners are left off. A change or cut given only in a name is not applied to a line headed by its entry.
UniProt P19838: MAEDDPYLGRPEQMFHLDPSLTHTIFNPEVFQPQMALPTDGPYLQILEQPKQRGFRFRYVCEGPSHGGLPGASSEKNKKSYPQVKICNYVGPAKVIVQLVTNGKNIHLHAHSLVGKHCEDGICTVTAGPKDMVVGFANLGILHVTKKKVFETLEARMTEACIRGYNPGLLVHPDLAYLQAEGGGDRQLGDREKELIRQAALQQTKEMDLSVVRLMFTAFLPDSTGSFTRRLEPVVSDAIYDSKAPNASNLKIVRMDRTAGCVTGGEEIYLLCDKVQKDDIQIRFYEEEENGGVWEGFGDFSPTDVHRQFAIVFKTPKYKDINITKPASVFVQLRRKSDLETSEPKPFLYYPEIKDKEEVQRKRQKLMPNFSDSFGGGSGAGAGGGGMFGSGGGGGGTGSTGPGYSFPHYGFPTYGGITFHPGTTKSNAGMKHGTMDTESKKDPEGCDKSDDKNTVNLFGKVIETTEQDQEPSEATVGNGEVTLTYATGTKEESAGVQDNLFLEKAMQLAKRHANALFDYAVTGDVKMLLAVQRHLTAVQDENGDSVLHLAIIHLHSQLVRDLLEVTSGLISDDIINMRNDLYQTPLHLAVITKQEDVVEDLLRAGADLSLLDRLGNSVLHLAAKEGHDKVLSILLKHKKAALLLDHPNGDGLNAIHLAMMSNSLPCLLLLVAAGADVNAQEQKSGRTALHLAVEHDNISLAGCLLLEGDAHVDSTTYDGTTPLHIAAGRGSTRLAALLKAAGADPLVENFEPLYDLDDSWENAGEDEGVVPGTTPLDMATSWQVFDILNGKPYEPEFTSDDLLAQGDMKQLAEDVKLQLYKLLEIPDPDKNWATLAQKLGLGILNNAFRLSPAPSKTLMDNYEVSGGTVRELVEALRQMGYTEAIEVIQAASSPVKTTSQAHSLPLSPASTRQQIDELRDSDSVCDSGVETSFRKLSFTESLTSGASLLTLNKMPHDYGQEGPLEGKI

Sequence	binding result [1]	binding result [2]	binding result [3]	binding result [4]
GGTTATCGTGGAATTTCCTCTG (double strand) [IL8 promoter kB probe]	binds	binds	–	–
GGTTACAAGGGACTTTCCGCTG (double strand) [HIV-1 LTR kB probe]	–	–	binds	binds
